Paper PMC6601512
Results are given in words; binding and its absence hold for the method and conditions named. Binding calls can cover weak binding; strength is not graded here.

Amino acid sequences for entries named in this document (tags omitted). A change or cut given only in a name is not applied to a line headed by its entry.
UniProt Q18490: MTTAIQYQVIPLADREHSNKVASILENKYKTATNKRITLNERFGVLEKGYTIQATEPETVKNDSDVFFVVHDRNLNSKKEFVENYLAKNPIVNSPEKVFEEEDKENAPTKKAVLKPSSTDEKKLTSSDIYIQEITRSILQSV

Key:
[1] = target: T1, IFE-3, full length (yeast two-hybrid) (C. elegans) (UniProt O61955); experiment: two-hybrid; yeast strain PJ69-4a, pGAD and pGBD plasmids; low-stringency (TRP-LEU-HIS-) or high-stringency (TRP-LEU-HIS-ADE-) medium as indicated; both orientations screened
T1 sequence: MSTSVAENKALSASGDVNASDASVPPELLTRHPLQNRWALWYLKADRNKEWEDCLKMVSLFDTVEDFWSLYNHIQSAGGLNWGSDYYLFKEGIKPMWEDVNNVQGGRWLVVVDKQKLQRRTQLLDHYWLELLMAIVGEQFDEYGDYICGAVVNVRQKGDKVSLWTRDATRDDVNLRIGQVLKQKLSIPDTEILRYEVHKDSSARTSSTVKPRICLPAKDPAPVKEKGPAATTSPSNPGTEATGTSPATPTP

[2] = target: T2, ERH-2, full length (yeast two-hybrid) (C. elegans) (UniProt Q20057); experiment: as above
T2 sequence: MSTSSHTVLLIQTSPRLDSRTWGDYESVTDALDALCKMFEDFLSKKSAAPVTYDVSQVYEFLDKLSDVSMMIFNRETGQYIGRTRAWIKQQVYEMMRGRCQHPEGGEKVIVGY

Substance	binding [1]	binding [2]
TOFU-6 C-terminal fragment with the putative eIF4E interaction motif (yeast two-hybrid) (C. elegans) (domain or fragment)	binds	–
Tudor domain of TOFU-6 (yeast two-hybrid) (C. elegans) (domain or fragment)	no binding	–
TOST-1 carrying the arginine mutation analogous to PID-1(R61C) (yeast two-hybrid) (from UniProt Q18490)	–	no binding
RRM domain of PID-3 (yeast two-hybrid) (C. elegans) (domain or fragment)	–	binds
